The test is described as follows: qHTS Assay for Lipid Storage Modulators in Drosophila S3 Cells.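 For cell number change: cells counted by Cell Tracker Red CMTPX staining in the red channel.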 The note with it: BODIPY lipid droplet fluorescence, 18-24 h; for cell number change: measured here: cell count max response, cells fed with added oleic acid. The method, boiled down: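 Laser-scanning cytometry quantifies lipid droplet accumulation (500–530 nm total intensity; droplet/cell object ratio) in oleic acid-fed (400 uM added) Drosophila S3 cells treated with a concentration series. 20 uM Triacsin C defined 100% inhibition.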
(In general: Quantitative high-throughput screening tests each substance at several concentrations.)

The mark [1] stands for this setting: measured here: cell number channel AC50, cells fed with added oleic acid.
Setting [2] is: measured here: lipid fluorescence (Fed channel) AC50, cells fed with added oleic acid.

This is one part of the list. The main result of the screen is listed elsewhere. These columns were measured beside it and carry no call. Compounds called inactive in the main read-out are mostly missing here. Words in brackets tell the shape of the fitted curve; partial curves, single points and poor fits give uncertain potencies.

As for `COc1cccc(CNC(=O)CSc2nnc3c(n2)[nH]c2ccc(OC)cc23)c1`, the cell number change was determined as 140%. Moreover, the concentration at half-maximal activity (AC50) under setting [1] was 20.6 µM [rising, partial curve]. Moreover, the concentration at half-maximal activity (AC50) under setting [2] was 0.651 µM [falling, full curve].

`C=CCSc1nc(C)c2cc(C)cc(C)c2n1`: under setting [2], the AC50 is 4.61 µM [falling, single point].

As to `Clc1cc2nc3ccccn3c2cc1Cl`, the cell number change was -17.4%. Besides, the AC50 under setting [2] is 0.00411 µM [falling, full curve, poor fit].

Consider `CCCNC(=O)NC(=O)COC(=O)c1cccc(NS(=O)(=O)c2ccc(F)c(F)c2)c1`, for which the cell number change was -57.7%. Also, the AC50 under setting [1] was 29.1 µM [falling, single point]. Besides, under setting [2], the AC50 is 6.51 µM [rising, partial curve, poor fit].

Regarding `Cc1ccc2c(NC(=O)C3CC3)cccc2n1`, the cell number change was -3.28%. The AC50 under setting [1] is 6.51 µM [falling, single point]. The half-maximal activity concentration (AC50) under setting [2] was 6.51 µM [falling, single point].

In the case of `Cc1cccc(N2CCN(C(c3cccs3)c3nnnn3C(C)(C)C)CC2)c1C` (stereo unspecified), the cell number change turned out to be 4.65%.

In the case of `CN1CCN(C2CCN(Cc3ccc(O)c4ncccc34)CC2)CC1`, the cell number change is -11.9%. Besides, the half-maximal activity concentration (AC50) under setting [2] was 0.00461 µM [rising, full curve, poor fit].

Turning to `C=CCOc1ccc(/C=N/NC(=O)CN2CCCCC2)cc1OC`, the cell number change amounted to 4.91%. Moreover, the half-maximal activity concentration (AC50) under setting [2] is 7.31 µM [rising, partial curve].

As for `Cn1c(CCNC(=O)c2ccc(Cl)c(Cl)c2)nnc1SCc1ccc(Cl)c(Cl)c1`, the cell number change was -45.6%. For the same molecule, the concentration at half-maximal activity (AC50) under setting [1] is 29.1 µM [falling, single point]. The AC50 under setting [2] was 29.1 µM [falling, single point].

Consider `CCOC(=O)c1cncc(C#CCO)c1`, for which the cell number change amounted to 31%.

Turning to `Cc1ccc(NC(=S)NCCc2c[nH]c3ccccc23)c(C)c1`, the cell number change is -5.16%. Also, the half-maximal activity concentration (AC50) under setting [2] is 7.31 µM [falling, single point].

Consider `CC1(C)Cc2c(sc3nc(-c4ccccc4)n(N)c(=O)c23)CO1`, for which the cell number change came to 0.384%. Further, the concentration at half-maximal activity (AC50) under setting [1] was 4.61 µM [falling, single point].

For the molecule `COc1ccc(C(=O)C(C)OC(=O)c2nc3nccc(C)n3n2)cc1` (stereo unspecified), the cell number change was -3.37%. Besides, the half-maximal activity concentration (AC50) under setting [2] is 6.51 µM [falling, single point].

Take `CC12CCC(C(=O)N(CSC(=S)N/N=C\c3ccccc3)C1=O)C2(C)C` (stereo unspecified): the cell number change was -18.6%. Besides, under setting [2], the AC50 was 20.6 µM [falling, partial curve, poor fit].

Consider `CSCCC(NC(=O)c1ccco1)C(=O)NCC(c1ccccc1)N(C)C` (stereo unspecified), for which the cell number change came out at 17.7%. Also, under setting [2], the AC50 was 1.84 µM [rising, partial curve].

On to `O=C(c1cnc2n(c1=O)CCS2)N1CCN(C(c2ccccc2)c2ccc(Cl)cc2)CC1` (stereo unspecified), for which the cell number change came out at 2.75%. Moreover, the AC50 under setting [2] is 32.6 µM [falling, single point].

For the molecule `CCOc1ccc(N(CC(=O)NC2CCCC2)C(=O)CCC(=O)Nc2nc(C)cs2)cc1`, the cell number change was 4.03%. Moreover, the AC50 under setting [2] is 20.6 µM [falling, single point].

In the case of `O=S(=O)(CCSc1ccc(C(F)(F)F)cn1)c1ccccc1`, the cell number change is -60.1%. Also, the half-maximal activity concentration (AC50) under setting [1] is 23.1 µM [falling, partial curve, poor fit]. In addition, the AC50 under setting [2] was 5.17 µM [falling, partial curve].

In the case of `O=C(/C=C/c1cccs1)N1CCc2ccccc21`, the cell number change is -2.16%. Also, the half-maximal activity concentration (AC50) under setting [2] was 0.326 µM [rising, full curve, poor fit].

For `CCN(CC(=O)NC(C)C)C(=O)C(CCSC)NC(=O)c1cccc(C)c1` (stereo unspecified), the cell number change is 54.8%. In addition, the AC50 under setting [1] was 6.51 µM [falling, single point]. For the same molecule, under setting [2], the AC50 was 29.1 µM [rising, single point].

In the case of `COCCNC(=O)/C(C#N)=C/c1cn(CC(=O)NCc2ccco2)c2ccccc12`, the cell number change is -31.7%. Under setting [1], the AC50 is 5.8 µM [falling, single point]. Also, under setting [2], the AC50 was 20.6 µM [falling, single point].

Turning to `c1ccc2c(Cn3ccnc3)c[nH]c2c1`, the cell number change was -11.6%. Further, the half-maximal activity concentration (AC50) under setting [2] is 4.11 µM [falling, partial curve, poor fit].

Take `O=C(c1ccccc1)N1CCc2ccccc21`: under setting [1], the AC50 was 1.84 µM [rising, partial curve, poor fit].

In the case of `COc1cccc(CNC(=O)Cn2ccc3cc(S(=O)(=O)N4CCCC4)ccc32)c1OC`, the cell number change was 3.36%.

`COc1ccc2cc(C3CC(c4ccco4)=NN3C(=O)CCC(=O)O)c(Cl)nc2c1` (stereo unspecified): the cell number change was -21.7%. Besides, the AC50 under setting [2] is 0.0291 µM [falling, full curve, poor fit].

For `N#Cc1ccc(NC(=O)CN2C(=O)NC(Cc3ccccc3)C2=O)cc1` (stereo unspecified), the cell number change was -37.5%. The AC50 under setting [1] is 36.6 µM [falling, partial curve, poor fit]. In addition, the AC50 under setting [2] is 0.00517 µM [falling, full curve, poor fit].

In the case of `CCCCC1(Br)C(=O)N(c2ccccc2)N(c2ccccc2)C1=O`, the cell number change was 2.85%.

Consider `Cc1nn(-c2ncc(C(F)(F)F)cc2Cl)c(=O)n1-c1ccccc1Cl`, for which the cell number change stood at 91.3%. Besides, the half-maximal activity concentration (AC50) under setting [1] is 29.1 µM [rising, single point].

Regarding `Cc1[nH]c2ccccc2c1C(=O)C(=O)N1CCN(c2cccc(Cl)c2)CC1`, the cell number change is -2.28%. Also, the half-maximal activity concentration (AC50) under setting [2] was 29.1 µM [rising, single point].

As to `S=c1[nH]nc(Nc2ccccc2)s1`, the cell number change is 49.2%. Moreover, the half-maximal activity concentration (AC50) under setting [2] was 29.1 µM [rising, single point].

Take `Cc1cc(Br)ccc1OCC(=O)N(Cc1nc(-c2ccccc2)no1)C(C)C`: the cell number change was 24.5%. In addition, the AC50 under setting [2] was 29.1 µM [rising, single point].

Consider `CCOC(=O)c1c(NC(=O)COc2ncnc3sccc23)sc2c1CCC2`, for which the cell number change is -19.5%.

For the molecule `CC(=O)Nc1c2c(nn1-c1ccc(F)cc1)CSC2`, the cell number change was 28.1%. Moreover, under setting [2], the AC50 is 25.9 µM [rising, single point].

For the molecule `Cc1cc(=O)[nH]c(SCC(=O)Nc2cc(S(=O)(=O)N(C)C)ccc2Cl)n1`, the cell number change was -81.5%.

On to `CCN(C(=O)CSc1nc2cc(C(F)(F)F)ccc2n1Cc1ccccc1)C1CCS(=O)(=O)C1` (stereo unspecified), for which the cell number change is -5.91%. The half-maximal activity concentration (AC50) under setting [2] was 1.84 µM [falling, partial curve].

For `Cc1nn(CCC(N)=O)c2nc(-c3cccs3)cc(C(F)(F)F)c12`, the cell number change was -2.43%. The half-maximal activity concentration (AC50) under setting [2] was 2.91 µM [rising, single point].

`Cc1ccc(-n2c(Cc3cccn3C)nnc2SCC(=O)N2CCN(c3ccccc3)CC2)cc1`: the cell number change came to 1.1%. Moreover, the AC50 under setting [2] is 0.13 µM [falling, full curve, poor fit].

For the molecule `CCCC1=C(C(=O)OCC)C(/C=C/c2ccccc2)n2ncnc2N1` (stereo unspecified), the cell number change was -76.4%. The concentration at half-maximal activity (AC50) under setting [1] was 29.1 µM [falling, single point].

The AC50 is the concentration giving half of the maximal activity seen. A lower AC50 goes with greater potency.

These data come from PubChem BioAssay AID2685 (National Center for Advancing Translational Sciences (NCATS), 2010).
